# In paper PMC6313912:
# Protein sequences, listed by entry. Tags and fused reporters are not part of them.
# UniProt P06241: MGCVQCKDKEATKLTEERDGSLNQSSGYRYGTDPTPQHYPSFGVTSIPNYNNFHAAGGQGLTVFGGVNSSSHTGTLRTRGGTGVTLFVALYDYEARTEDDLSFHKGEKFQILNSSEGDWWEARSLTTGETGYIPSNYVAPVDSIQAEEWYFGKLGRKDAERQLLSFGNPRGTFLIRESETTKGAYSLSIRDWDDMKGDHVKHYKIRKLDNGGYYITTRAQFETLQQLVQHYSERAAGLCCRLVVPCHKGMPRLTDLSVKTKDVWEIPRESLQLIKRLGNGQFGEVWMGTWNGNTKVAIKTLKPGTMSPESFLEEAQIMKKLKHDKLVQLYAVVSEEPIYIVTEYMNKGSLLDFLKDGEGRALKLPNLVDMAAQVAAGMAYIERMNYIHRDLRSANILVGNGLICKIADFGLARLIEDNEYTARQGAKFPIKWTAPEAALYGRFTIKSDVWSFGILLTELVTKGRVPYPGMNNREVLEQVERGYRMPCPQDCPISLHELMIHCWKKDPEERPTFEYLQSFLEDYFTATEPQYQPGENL
# UniProt Q96SN8: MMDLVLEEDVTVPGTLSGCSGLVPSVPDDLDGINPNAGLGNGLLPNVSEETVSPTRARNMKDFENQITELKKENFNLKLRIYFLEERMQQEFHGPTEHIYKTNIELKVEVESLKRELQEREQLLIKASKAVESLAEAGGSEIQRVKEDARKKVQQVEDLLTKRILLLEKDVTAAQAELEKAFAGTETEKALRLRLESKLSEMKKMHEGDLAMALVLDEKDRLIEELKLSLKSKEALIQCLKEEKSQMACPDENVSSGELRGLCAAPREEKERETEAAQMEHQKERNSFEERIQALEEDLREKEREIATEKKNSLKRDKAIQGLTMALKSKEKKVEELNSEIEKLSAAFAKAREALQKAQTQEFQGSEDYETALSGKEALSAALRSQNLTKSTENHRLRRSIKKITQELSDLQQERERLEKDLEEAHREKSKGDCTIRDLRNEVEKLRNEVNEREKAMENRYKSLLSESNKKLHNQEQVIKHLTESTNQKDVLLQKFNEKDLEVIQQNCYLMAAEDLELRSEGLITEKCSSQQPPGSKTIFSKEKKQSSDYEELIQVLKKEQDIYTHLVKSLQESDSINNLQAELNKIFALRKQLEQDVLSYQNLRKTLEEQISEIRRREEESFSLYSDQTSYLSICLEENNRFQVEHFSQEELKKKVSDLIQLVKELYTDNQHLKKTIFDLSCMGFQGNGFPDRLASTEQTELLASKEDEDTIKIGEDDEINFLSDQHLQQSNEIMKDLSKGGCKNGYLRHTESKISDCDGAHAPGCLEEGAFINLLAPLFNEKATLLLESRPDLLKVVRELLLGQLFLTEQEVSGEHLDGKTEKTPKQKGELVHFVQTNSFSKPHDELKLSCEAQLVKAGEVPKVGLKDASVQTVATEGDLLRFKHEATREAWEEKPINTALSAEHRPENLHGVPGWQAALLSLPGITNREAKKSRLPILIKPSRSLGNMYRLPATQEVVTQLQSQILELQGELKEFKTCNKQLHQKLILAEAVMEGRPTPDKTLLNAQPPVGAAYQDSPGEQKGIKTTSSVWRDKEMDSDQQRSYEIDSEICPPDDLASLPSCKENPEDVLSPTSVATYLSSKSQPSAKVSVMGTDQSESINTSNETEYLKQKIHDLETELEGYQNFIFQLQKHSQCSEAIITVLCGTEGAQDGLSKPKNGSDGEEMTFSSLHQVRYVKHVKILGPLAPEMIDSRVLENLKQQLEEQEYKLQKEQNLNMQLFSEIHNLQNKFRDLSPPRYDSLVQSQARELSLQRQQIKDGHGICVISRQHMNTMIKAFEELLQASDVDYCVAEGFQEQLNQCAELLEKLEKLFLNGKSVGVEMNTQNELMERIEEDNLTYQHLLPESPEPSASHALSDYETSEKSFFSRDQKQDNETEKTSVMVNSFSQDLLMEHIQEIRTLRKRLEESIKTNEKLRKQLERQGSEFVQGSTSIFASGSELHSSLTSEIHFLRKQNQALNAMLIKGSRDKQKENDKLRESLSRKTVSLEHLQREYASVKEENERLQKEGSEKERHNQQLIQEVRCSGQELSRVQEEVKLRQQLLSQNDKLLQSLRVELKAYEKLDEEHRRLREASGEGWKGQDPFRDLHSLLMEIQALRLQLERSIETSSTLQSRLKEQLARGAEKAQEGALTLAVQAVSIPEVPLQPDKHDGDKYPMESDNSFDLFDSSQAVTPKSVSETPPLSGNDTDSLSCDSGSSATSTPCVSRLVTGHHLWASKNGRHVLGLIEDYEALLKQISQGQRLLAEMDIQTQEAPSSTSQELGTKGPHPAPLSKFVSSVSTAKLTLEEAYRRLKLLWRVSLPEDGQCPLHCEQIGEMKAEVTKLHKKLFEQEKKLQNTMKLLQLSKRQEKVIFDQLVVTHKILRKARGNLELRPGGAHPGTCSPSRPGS
# UniProt Q5VU43: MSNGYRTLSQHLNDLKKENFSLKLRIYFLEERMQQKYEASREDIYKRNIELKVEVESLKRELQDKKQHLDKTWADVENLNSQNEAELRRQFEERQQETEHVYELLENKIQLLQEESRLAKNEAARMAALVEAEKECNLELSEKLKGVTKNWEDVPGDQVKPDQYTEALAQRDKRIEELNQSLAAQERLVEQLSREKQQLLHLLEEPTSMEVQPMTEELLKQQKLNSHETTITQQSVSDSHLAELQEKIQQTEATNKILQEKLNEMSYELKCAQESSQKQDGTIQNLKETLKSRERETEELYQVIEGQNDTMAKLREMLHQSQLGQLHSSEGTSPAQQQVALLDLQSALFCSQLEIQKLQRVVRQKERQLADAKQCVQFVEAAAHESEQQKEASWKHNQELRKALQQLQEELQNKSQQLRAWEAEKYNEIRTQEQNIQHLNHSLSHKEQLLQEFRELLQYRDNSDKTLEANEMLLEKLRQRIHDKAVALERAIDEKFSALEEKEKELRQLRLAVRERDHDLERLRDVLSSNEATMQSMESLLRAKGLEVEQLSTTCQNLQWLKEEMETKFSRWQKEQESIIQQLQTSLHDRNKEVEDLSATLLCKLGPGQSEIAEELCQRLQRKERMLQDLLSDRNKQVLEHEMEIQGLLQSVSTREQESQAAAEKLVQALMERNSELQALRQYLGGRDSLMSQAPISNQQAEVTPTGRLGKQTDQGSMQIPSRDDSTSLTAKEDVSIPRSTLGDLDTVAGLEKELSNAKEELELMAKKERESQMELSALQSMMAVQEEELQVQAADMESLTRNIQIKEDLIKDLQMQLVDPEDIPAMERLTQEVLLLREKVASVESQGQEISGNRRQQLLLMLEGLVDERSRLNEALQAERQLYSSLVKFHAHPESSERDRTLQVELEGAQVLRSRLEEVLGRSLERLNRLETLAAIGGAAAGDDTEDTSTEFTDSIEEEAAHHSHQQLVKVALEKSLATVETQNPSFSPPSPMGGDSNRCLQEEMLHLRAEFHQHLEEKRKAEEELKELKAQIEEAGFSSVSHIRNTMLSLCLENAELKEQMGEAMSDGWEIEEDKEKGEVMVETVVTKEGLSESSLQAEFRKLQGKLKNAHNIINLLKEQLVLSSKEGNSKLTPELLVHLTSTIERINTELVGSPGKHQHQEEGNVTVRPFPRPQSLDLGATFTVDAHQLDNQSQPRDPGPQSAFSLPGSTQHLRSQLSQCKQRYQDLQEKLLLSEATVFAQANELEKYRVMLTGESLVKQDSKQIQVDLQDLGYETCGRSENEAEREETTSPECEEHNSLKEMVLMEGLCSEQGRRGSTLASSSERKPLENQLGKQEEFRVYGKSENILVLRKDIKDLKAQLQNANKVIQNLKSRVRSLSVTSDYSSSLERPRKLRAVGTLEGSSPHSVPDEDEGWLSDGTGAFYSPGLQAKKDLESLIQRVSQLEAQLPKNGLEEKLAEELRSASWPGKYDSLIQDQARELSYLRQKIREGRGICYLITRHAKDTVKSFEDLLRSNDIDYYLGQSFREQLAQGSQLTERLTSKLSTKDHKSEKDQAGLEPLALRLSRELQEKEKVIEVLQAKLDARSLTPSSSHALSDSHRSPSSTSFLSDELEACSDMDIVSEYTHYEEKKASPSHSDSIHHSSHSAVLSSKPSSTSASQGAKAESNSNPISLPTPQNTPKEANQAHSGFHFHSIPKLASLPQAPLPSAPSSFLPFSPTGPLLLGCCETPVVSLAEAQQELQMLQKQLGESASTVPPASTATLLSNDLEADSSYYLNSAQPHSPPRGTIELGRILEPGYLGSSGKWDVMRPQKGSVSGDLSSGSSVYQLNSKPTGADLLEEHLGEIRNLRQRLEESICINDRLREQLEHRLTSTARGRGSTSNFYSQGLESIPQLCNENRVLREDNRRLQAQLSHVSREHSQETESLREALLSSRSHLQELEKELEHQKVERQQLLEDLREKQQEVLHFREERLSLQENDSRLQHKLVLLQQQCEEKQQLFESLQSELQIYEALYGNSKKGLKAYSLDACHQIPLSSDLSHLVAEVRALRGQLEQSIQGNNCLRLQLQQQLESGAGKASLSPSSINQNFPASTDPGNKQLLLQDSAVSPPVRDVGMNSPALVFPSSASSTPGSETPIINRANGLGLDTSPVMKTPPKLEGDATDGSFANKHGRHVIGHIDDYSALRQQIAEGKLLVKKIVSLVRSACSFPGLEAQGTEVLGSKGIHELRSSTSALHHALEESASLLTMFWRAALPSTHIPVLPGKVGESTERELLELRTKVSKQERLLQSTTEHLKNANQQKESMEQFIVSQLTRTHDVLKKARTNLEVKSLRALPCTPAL
# Results are given in words; binding and its absence hold for the method and conditions named. In cells and extracts the contact can be indirect. Some results given as binding are weak or reduced against the parent protein; the word gives no strength.
# Molecular target: endogenous Fyn (U-118 glioblastoma cells) (human (endogenous in U-118)) (UniProt P06241)
# Assay: co-IP; α-Fyn immunoprecipitation of endogenous Fyn from U-118 glioblastoma cells; Western blotting; IgG control
row,Substance,binding
1,endogenous CDK5RAP2 (U-118 glioblastoma cells) (from UniProt Q96SN8 1-1893),binds
2,endogenous PDE4DIP (U-118 glioblastoma cells) (from UniProt Q5VU43 1-2346),binds
3,endogenous AKAP9 (U-118 glioblastoma cells) (from UniProt Q99996 1-3907),binds
